Read-outs that look alike come from different tables or passages of the source. These are yes or no findings as the source states them, for the method shown. In cells and extracts the contact can be indirect. Some results given as binding are weak or reduced against the parent protein; the word gives no strength.
Tests used:
[1] = target: eukaryotic initiation factor 4A-1 (EIF4A1) (human (endogenous in HaCaT)) (UniProt P60842); assay: co-IP; 1 mg lysate protein with 10 μg anti-EIF4A1 antibody in IP lysis buffer at 4°C overnight, Protein A and Protein G magnetic beads; western blot with anti-USP15; EIF4A1 as bait; also done after silencing USP15
[2] = target: eukaryotic initiation factor 4A-1 (EIF4A1) (human (endogenous in HaCaT)) (UniProt P60842); assay: as above; remark: listed apart in the source

By UniProt entry, the sequences of proteins in these tests, tags left out.
UniProt P60842: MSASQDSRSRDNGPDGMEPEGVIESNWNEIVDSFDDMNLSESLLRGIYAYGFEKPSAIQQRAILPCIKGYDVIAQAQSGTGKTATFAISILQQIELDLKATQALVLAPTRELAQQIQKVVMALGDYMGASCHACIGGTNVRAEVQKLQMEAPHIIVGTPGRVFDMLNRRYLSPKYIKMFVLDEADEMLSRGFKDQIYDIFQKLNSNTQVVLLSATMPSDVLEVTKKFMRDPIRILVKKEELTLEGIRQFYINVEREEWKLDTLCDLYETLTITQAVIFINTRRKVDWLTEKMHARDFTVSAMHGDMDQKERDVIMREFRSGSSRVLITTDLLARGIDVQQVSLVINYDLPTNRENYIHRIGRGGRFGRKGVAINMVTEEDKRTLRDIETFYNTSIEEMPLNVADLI
UniProt P04406: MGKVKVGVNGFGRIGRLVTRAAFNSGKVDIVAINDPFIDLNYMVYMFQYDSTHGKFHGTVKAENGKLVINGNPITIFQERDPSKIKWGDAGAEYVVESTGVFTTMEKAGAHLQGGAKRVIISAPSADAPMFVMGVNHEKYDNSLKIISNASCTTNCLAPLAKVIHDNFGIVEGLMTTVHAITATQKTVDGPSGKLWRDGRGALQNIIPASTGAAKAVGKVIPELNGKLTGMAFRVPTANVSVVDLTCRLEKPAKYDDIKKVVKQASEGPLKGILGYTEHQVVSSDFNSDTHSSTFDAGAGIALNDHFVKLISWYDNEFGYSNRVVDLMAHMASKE

Row | binding [1] | binding [2] | Molecule
1 | no binding | – | GAPDH (from UniProt P04406 1-335)
2 | – | binds | Ubiquitin-specific peptidase 15 (USP15) (enzyme, UniProt Q9Y4E8 1-981) MAEGGAADLDTQRSDIATLLKTSLRKGDTWYLVDSRWFKQWKKYVGFDSWDKYQMGDQNVYPGPIDNSGLLKDGDAQSLKEHLIDELDYILLPTEGWNKLVSWYTLMEGQEPIARKVVEQGMFVKHCKVEVYLTELKLCENGNMNNVVTRRFSKADTIDTIEKEIRKIFSIPDEKETRLWNKYMSNTFEPLNKPDSTIQDAGLYQGQVLVIEQKNEDGTWPRGPSTPKSPGASNFSTLPKISPSSLSNNYNNMNNRNVKNSNYCLPSYTAYKNYDYSEPGRNNEQPGLCGLSNLGNTCFMNSAIQCLSNTPPLTEYFLNDKYQEELNFDNPLGMRGEIAKSYAELIKQMWSGKFSYVTPRAFKTQVGRFAPQFSGYQQQDCQELLAFLLDGLHEDLNRIRKKPYIQLKDADGRPDKVVAEEAWENHLKRNDSIIVDIFHGLFKSTLVCPECAKISVTFDPFCYLTLPLPMKKERTLEVYLVRMDPLTKPMQYKVVVPKIGNILDLCTALSALSGIPADKMIVTDIYNHRFHRIFAMDENLSSIMERDDIYVFEININRTEDTEHVIIPVCLREKFRHSSYTHHTGSSLFGQPFLMAVPRNNTEDKLYNLLLLRMCRYVKISTETEETEGSLHCCKDQNINGNGPNGIHEEGSPSEMETDEPDDESSQDQELPSENENSQSEDSVGGDNDSENGLCTEDTCKGQLTGHKKRLFTFQFNNLGNTDINYIKDDTRHIRFDDRQLRLDERSFLALDWDPDLKKRYFDENAAEDFEKHESVEYKPPKKPFVKLKDCIELFTTKEKLGAEDPWYCPNCKEHQQATKKLDLWSLPPVLVVHLKRFSYSRYMRDKLDTLVDFPINDLDMSEFLINPNAGPCRYNLIAVSNHYGGMGGGHYTAFAKNKDDGKWYYFDDSSVSTASEDQIVSKAAYVLFYQRQDTFSGTGFFPLDRETKGASAATGIPLESDEDSNDNDNDIENENCMHTN

Reference: article PMC7332549
